Experimental data as given in US11951269B2, “Drug-coated medical devices” (Medtronic Vascular, Inc., priority 2018, dated 2024).
At least one compound was matched to its structure with a doubt left.

Test: Effect of DEX/urea spray coating on morphology of sirolimus coating
Assay type: physicochemical
Conditions: DEX/urea (1:1) in ethanol/water (99:1), 363 μl sprayed on sirolimus/urea layer; data not shown

For `CO[C@H]1C[C@@H]2CC[C@@H](C)[C@@](O)(O2)C(=O)C(=O)N2CCCC[C@H]2C(=O)O[C@H]([C@H](C)C[C@@H]2CC[C@@H](O)[C@H](OC)C2)CC(=O)[C@H](C)/C=C(\C)[C@@H](O)[C@@H](OC)C(=O)[C@H](C)C[C@H](C)/C=C/C=C/C=C/1C` [sirolimus], the “morphology of the sirolimus coating after DEX/urea spray coating” value was “minimal crystalline sirolimus remains”.
